Reference: PubChem BioAssay AID540275 (National Center for Advancing Translational Sciences (NCATS), 2011)
Hit rate of the full screen: of about 320,000 compounds, about 620 (0.19%) were called active. Inconclusive means that the source gave no clear call. Such entries were picked first, then a sample of the others. Rule as the data show it: active = activation above about 80%; inconclusive = between about 30% and that limit; inactive = weaker than that.

The chains behind the UniProt entries cited, without tags or fusion partners.
UniProt Q8NER1, whole entry, looked up: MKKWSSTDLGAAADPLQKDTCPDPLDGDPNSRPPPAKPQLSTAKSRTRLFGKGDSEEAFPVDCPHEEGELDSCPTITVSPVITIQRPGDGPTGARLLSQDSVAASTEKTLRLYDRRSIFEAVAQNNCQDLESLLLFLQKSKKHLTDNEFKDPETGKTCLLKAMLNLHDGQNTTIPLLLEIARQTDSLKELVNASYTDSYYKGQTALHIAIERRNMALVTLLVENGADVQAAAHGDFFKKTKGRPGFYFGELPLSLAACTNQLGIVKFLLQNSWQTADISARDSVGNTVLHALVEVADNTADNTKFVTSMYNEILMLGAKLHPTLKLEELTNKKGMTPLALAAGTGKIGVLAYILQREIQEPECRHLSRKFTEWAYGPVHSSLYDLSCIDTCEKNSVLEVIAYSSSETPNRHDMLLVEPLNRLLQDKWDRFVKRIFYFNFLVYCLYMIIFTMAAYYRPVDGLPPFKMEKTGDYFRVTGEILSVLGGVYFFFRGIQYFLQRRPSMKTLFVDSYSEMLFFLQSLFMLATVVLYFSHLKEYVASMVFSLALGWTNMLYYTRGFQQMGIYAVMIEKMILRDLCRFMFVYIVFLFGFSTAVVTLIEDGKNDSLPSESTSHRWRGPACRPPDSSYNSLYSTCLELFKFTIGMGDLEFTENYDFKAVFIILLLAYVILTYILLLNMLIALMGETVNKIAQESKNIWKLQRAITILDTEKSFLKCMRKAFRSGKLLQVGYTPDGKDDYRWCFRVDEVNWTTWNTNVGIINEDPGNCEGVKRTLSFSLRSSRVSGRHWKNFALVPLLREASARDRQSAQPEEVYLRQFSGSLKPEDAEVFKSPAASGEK

target: Transient receptor potential cation channel subfamily V member 1 (Homo sapiens) (UniProt Q8NER1); test: HTS Assay for Compounds that Act as Agonists of the Vanilloid Receptor 1; settings: TRPV1-expressing cells, Fluo-8 calcium influx, agonist mode; at 8.33 µM, hits give high values; also: 0% is about no effect
How it was run: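 Fluo-8 calcium influx in TRPV1-expressing cells, kinetic read (ex 480/em 520 nm). Compound added and read 3 min for agonist activity, followed by capsaicin at EC20 final and 2 min further read for enhancement.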

SMILES	activation
Cc1ccc(-c2cc(Cc3ccncc3)c(=O)[nH]n2)cc1	inconclusive: 75.7%
Cc1nnn(-c2nonc2N)c1C(=O)N/N=C/c1cccc2ccccc12	inactive: -6.57%
CCCCn1nnnc1SCC(=O)c1ccccc1F	inconclusive: 44.8%
Cc1ccnc2ccc(-c3nc4ccccc4o3)cc12	inconclusive: 36%
Cc1cccc(C)c1Nc1nnc(SCC(=O)NC(=O)c2cccn2C)s1	inactive: -0.901%
CC(=O)N1CCN(c2ccc(NC(=O)C(C)Oc3ccc(Cl)cc3Cl)cc2)CC1 (stereo not given)	inactive: 3.4%
CN1CCN(C(=O)C2=C[C@@H](c3ccc(Br)cc3)C[C@@H](OCc3ccc(CO)cc3)O2)CC1	inconclusive: 54.3%
Cc1nn(-c2ccccc2)c2sc(C(=O)N3CCOCC3)cc12	inconclusive: 42.5%
COc1ccc(Nc2nc(C)nc3c2oc2ccccc23)cc1	active: 98.2%
Cc1cc(=O)oc2c3c(cc(OCC(=O)NCc4cccnc4)c12)OC(C)(C)CC3	inconclusive: 46.9%
O=C(O)CSc1nnc(-c2cccc(S(=O)(=O)N3CCOCC3)c2)n1-c1cccc(Cl)c1	inactive: -2.13%
Cn1c(=O)c2ccccc2n2c(=S)[nH]nc12	inactive: -0.992%
COc1cc(-c2noc(CCC(=O)Nc3cccnc3)n2)cc(OC)c1OC	inactive: 12.8%
CC1=NN(C(=O)c2ccc(Cn3nc(C)c(Br)c3C)cc2)C(O)(C(F)(F)F)C1 (stereo not given)	inactive: 1.8%
Cc1ccnc(NC(=O)c2oc3ccccc3c2C)c1	inconclusive: 51%
Cc1cccc(C)c1NC(=O)CN(C)CC(=O)Nc1sc2c(c1C(N)=O)CCC2	inactive: 0.306%
CC(=O)NC(CSC(CC(=O)c1ccco1)c1ccc(C)cc1)C(=O)O (stereo not given)	inconclusive: 61%
CCCCN=C1NN=C(c2cc3ccccc3o2)CS1	inactive: 2.07%
CCOc1ccc(NC(=O)CSc2nc3ccccc3nc2N2CC(C)OC(C)C2)cc1 (stereo not given)	inconclusive: 41.4%
Cc1ccc(NC(=O)C(C)OC(=O)Cn2cnc3ccccc3c2=O)cc1 (stereo not given)	inconclusive: 63.3%
COc1ccc(OC)c(CNn2c(-c3cccc(C)c3)nc3ccccc3c2=O)c1	inconclusive: 44.6%
CCC(C)c1ccc(OCC(=O)Nc2ccc(Cl)cn2)cc1 (stereo not given)	inconclusive: 38.1%
CCCCn1c(N)c(N(CCOC)C(=O)CN(C)S(=O)(=O)c2ccc(Cl)cc2)c(=O)[nH]c1=O	inconclusive: 40.8%

SMILES	activation
CCC(C)c1ccccc1NC(=O)C(C)N(C)Cc1cccc(OC)c1 (stereo not given)	inconclusive: 47.6%
Cc1csc2c(N3CCN(C(=O)Nc4ccc(Cl)c(Cl)c4)CC3)ncnc12	inconclusive: 54.7%
Brc1ccc(C2=Nn3c(nnc3-c3n[nH]c4c3CCC4)SC2)cc1	inconclusive: 32.7%
COc1ccc(C(C(=O)NC2CCCCC2)N(C(=O)c2snc(C(N)=O)c2N)c2ccccc2OC)cc1 (stereo not given)	inconclusive: 32.9%
COCCn1cc(C(=O)NCCN(C)C)c2c3ccccc3n(C)c2c1=O	inactive: 1.74%
COc1ccc(NC(C)=O)cc1NS(=O)(=O)c1cn(C)c(=O)n(C)c1=O	inactive: 0.95%
O=C(Nc1cccc(S(=O)(=O)C(F)F)c1)c1ccc(S(=O)(=O)N2CCOCC2)cc1	inconclusive: 32.5%
O=C(c1ccc([N+](=O)[O-])o1)N1CCN(c2nc3c(Cl)cccc3s2)CC1	inconclusive: 45.2%
CCc1cccc(NC(=O)c2ccc(Br)o2)c1	inconclusive: 45.8%
CC(/C=C1\SC(=S)N(CCCC(=O)Nc2ccc(C(=O)O)cc2)C1=O)=C\c1ccccc1	inactive: 2.44%
O=C(COc1ccccc1)NC(=S)Nc1ccc2c3c(cccc13)CC2	inactive: 2.99%
COc1ccccc1NC(=O)c1ccc(NC(=O)c2ccco2)cc1	inactive: 11.3%
O=C(NCc1ccc(F)cc1)c1cnc(Cl)c(Cl)c1	inconclusive: 46.2%
CCOc1ccccc1N(CC(=O)NC1CCCCC1)C(=O)c1nsc(Cl)c1Cl	inconclusive: 40.4%
COc1ccc(COc2ncnc3ccc(Br)cc23)cc1F	inactive: 10.8%
CC(=O)Nc1cccc(-c2csc(Nc3ccc(C)cn3)n2)c1	inconclusive: 32.8%
CC(C)c1ccc(CN2C(=O)NC3(CCCCCC3)C2=O)cc1	inconclusive: 45.9%
NC(=O)c1ccsc1NC(=O)CSc1nncs1	inactive: -0.144%
Cc1ccc(C(=O)NC2CCN(S(=O)(=O)c3ccccc3F)CC2)cc1	inconclusive: 42.1%
Cc1cc(-c2ccccc2)nc(N/N=C/c2ccc(O)cc2O)n1	inconclusive: 41.8%
CCOc1ccc(NC(=O)C2CCN(C(=O)NCc3ccccc3)CC2)cc1	inconclusive: 79.9%
CCOc1ccccc1CN1CCC(Oc2cccc(C(=O)NCCOC)c2)CC1	inactive: -0.0141%
Cc1nc2ccc(Cl)cc2nc(C)/c1=N\O	inactive: 12.4%

SMILES	activation
CNC(=O)c1csc(-c2ccc(C)cc2)n1	active: 80.5%
CCOC(=O)c1cccc(NC(=O)CCc2nc(-c3ccc(C)cc3)no2)c1	inactive: 0.932%
O=C(NCc1cccnc1)C1CC(c2ccc(Cl)c(Cl)c2)=NO1 (stereo not given)	inactive: 24.2%
Cc1ccnc(NC(=O)c2cccc(S(=O)(=O)N3CCOCC3)c2)c1	inconclusive: 58.7%
O=C(Nc1nc(-c2ccc(Cl)s2)cs1)c1ccco1	inconclusive: 49.3%
Cn1c(-c2ccccc2)cnc1SCC(=O)N1CCCCC1	inconclusive: 54.2%
CC(C)(C)C(=O)OCCNc1nc(-c2ccccc2)nc2ccccc12	inconclusive: 45.5%
Cc1oncc1C(=O)Nc1ccc(C(F)(F)F)cc1	inconclusive: 50.5%
Cc1ccc2c(c1)N(Cc1cccc(F)c1)C(=O)C(C)O2 (stereo not given)	inconclusive: 36.3%
CC1CCc2cc(F)ccc2N1C(=O)CSc1nnc2c(n1)[nH]c1ccc(F)cc12 (stereo not given)	inactive: -2.02%
Cc1ccc(-c2nn(-c3ccccc3)cc2/C=N/n2c(-c3cccs3)n[nH]c2=S)cc1	inactive: 0.803%
Cc1nc2ccc(NC(=O)c3ccc(Br)o3)cc2s1	inconclusive: 33.6%
CCc1ccc(NC(=O)N2CCCCCC2)cc1	inconclusive: 66.2%
COc1ccc(C2CCCN2C(=S)Nc2ccc(C)cc2C)cc1OC (stereo not given)	inactive: -2.81%
CCCn1c(=N)c(S(=O)(=O)c2ccccc2)cc2c(=O)n3cccc(C)c3nc21	inconclusive: 36.7%
O=C(NCc1ccccc1F)c1ccc(S(=O)(=O)N2CCCCCC2)cc1	inconclusive: 38.9%
Cc1ccc(OCC(=O)Nc2ccc(-c3nc4ccc(C)cc4o3)cc2)cc1	inactive: -0.352%
O=C(c1ccc(Sc2ccccc2)c([N+](=O)[O-])c1)N1CCOCC1	inconclusive: 35.7%
O=[N+]([O-])c1ccc(C[n+]2cccc3ccc4cccnc4c32)cc1	inactive: -1.91%
CSc1nc(N2CCN(c3ccccc3Cl)CC2)c2ccccc2n1	inconclusive: 45%
O=[N+]([O-])c1ccc(C(=S)N2CCN(c3ccc(F)cc3)CC2)cc1	inactive: 0.178%
CC(NC(=O)c1cc2c(s1)CCCC2)C(C)(C)C (stereo not given)	inconclusive: 41.1%
CC1(C)CC(=O)C2=C(C1)Oc1nc3ccccc3cc1C2C(C#N)C#N (stereo not given)	inconclusive: 34.6%

SMILES	activation
COc1cc(C(=O)N(C)CC2CCN(CCc3cccc(C(F)(F)F)c3)CC2)ccc1C	inactive: 3.66%
COc1ccc(NC(=O)C(C)Sc2ccccc2)cc1 (stereo not given)	inconclusive: 31.3%
COC(=O)c1c(NC(=S)NN2CCN(C)CC2)sc2c1CCC(C)C2 (stereo not given)	inactive: 3.93%
O=[N+]([O-])c1cc([N+](=O)[O-])c(Oc2cccc(Cl)c2Cl)cc1NN1CCCCC1	inconclusive: 30.4%
CN(C)S(=O)(=O)c1ccc(N2CCCC2)c(C(=O)NNC(=O)COc2ccc(Cl)cc2)c1	inactive: 1.45%
Cn1cccc1C(=O)NNC(=O)COc1ccccc1Cl	inactive: -0.347%
CCOc1ccc(NC(=O)CCCN2C(=S)NC(C)(C)CC2C)cc1 (stereo not given)	inactive: -2.8%
Cc1ccc(N(C)C(=O)CCS(=O)(=O)c2cc3c(cc2Cl)NC(=O)CO3)cc1	inconclusive: 48.8%
CC(C)c1ccc(Nc2nc(NCc3ccco3)nc(N3CCOCC3)n2)cc1	inconclusive: 68.5%
CC(C)/C=N/NC(=O)c1ccc(Cl)cc1	inconclusive: 33.3%
COc1ccc(OC)c(NC(=O)COC(=O)/C=C/c2ccc(Cl)cc2)c1	inactive: 0.494%
CCN(CC)c1ccc(-n2cc3c(=O)n(C)c(=O)n(C)c3c2)cc1	inconclusive: 55.2%
Cc1cc2c(cc1C)C(c1ccccc1Br)CC(=O)N2 (stereo not given)	inconclusive: 35.4%
CCC(C)NC(=O)CSc1nc2cc3c(cc2c(=O)n1Cc1ccc(C(=O)NCCc2ccc(OC)c(OC)c2)cc1)OCO3 (stereo not given)	inactive: 0.484%
Cc1ccc(C)c(NC(=O)c2ccc(S(=O)(=O)C(F)F)cc2)c1	inconclusive: 48.3%
CSCc1ccc(C(=O)Nc2cc(C)cc(C)c2)cc1	inconclusive: 54.2%
CCc1ccc(NC(=O)N(CCCN2CCOCC2)C(C)c2cc3cccc(OC)c3o2)cc1 (stereo not given)	inconclusive: 51.1%
COc1ccc2c(c1)C(=O)CCC2c1ccccc1 (stereo not given)	inactive: 0.373%
O=C(Nc1ncccc1O)c1ccc(Cl)c(S(=O)(=O)N2CCCCCC2)c1	inconclusive: 79.6%
O=C(CSc1n[nH]c(-c2ccccc2O)n1)NC1CCCCC1	inconclusive: 35.1%
Cc1ccccc1CN1CCC(n2nccc2NC(=O)CCCc2ccccc2)CC1	inconclusive: 34.7%

An excerpt of these results, in CSV form:
SMILES,activation
CCN(CC)c1ccc(-n2cc3c(=O)n(C)c(=O)n(C)c3c2)cc1,inconclusive: 55.2%
Cc1cc2c(cc1C)C(c1ccccc1Br)CC(=O)N2 (stereo not given),inconclusive: 35.4%
CCC(C)NC(=O)CSc1nc2cc3c(cc2c(=O)n1Cc1ccc(C(=O)NCCc2ccc(OC)c(OC)c2)cc1)OCO3 (stereo not given),inactive: 0.484%
Cc1ccc(C)c(NC(=O)c2ccc(S(=O)(=O)C(F)F)cc2)c1,inconclusive: 48.3%
CSCc1ccc(C(=O)Nc2cc(C)cc(C)c2)cc1,inconclusive: 54.2%
CCc1ccc(NC(=O)N(CCCN2CCOCC2)C(C)c2cc3cccc(OC)c3o2)cc1 (stereo not given),inconclusive: 51.1%
